{"sequences": {"note": "Sequences of proteins named here, by UniProt entry; tags and fusion partners are left off. A change or cut given only in a name is not applied to a line headed by its entry.", "UniProt Q0VGT2": "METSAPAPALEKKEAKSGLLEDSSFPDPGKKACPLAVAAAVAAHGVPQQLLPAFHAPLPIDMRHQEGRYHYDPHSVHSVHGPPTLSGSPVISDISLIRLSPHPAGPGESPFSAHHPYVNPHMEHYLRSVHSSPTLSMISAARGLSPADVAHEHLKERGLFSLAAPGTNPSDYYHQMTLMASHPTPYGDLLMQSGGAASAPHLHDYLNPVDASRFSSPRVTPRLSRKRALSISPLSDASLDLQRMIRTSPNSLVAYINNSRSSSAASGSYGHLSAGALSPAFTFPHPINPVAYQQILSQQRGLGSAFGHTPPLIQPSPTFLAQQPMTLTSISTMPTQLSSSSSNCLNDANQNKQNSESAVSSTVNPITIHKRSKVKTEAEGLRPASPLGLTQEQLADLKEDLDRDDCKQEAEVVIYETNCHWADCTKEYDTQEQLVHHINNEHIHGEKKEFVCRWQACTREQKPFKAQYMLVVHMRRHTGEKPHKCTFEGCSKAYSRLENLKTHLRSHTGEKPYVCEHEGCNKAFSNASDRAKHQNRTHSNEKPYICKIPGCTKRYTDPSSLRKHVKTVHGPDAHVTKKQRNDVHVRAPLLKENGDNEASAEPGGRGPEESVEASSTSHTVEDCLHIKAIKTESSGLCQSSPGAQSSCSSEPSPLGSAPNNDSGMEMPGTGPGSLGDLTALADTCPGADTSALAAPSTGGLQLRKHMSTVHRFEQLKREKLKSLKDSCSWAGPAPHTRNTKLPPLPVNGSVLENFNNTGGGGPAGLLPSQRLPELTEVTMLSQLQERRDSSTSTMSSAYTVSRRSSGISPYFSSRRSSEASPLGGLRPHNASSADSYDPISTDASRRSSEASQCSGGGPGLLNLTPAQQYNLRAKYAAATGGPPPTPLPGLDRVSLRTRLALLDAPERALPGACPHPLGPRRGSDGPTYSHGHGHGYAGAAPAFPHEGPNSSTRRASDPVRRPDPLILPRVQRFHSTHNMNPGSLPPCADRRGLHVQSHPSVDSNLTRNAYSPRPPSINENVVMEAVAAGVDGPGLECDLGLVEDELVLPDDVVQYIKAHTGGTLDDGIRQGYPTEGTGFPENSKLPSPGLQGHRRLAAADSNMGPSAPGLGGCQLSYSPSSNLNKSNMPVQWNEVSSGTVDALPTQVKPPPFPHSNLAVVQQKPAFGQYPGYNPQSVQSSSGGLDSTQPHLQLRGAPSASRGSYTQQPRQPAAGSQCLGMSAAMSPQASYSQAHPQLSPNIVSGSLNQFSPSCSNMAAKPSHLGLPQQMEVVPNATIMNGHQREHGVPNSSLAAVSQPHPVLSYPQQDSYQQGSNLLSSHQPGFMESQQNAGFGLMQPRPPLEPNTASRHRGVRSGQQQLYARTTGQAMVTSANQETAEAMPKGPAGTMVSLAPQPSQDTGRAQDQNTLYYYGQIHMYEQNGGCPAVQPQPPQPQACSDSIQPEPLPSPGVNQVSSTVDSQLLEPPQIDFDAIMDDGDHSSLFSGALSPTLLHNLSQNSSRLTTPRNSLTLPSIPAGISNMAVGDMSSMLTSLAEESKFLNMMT", "UniProt Q3TKT4": "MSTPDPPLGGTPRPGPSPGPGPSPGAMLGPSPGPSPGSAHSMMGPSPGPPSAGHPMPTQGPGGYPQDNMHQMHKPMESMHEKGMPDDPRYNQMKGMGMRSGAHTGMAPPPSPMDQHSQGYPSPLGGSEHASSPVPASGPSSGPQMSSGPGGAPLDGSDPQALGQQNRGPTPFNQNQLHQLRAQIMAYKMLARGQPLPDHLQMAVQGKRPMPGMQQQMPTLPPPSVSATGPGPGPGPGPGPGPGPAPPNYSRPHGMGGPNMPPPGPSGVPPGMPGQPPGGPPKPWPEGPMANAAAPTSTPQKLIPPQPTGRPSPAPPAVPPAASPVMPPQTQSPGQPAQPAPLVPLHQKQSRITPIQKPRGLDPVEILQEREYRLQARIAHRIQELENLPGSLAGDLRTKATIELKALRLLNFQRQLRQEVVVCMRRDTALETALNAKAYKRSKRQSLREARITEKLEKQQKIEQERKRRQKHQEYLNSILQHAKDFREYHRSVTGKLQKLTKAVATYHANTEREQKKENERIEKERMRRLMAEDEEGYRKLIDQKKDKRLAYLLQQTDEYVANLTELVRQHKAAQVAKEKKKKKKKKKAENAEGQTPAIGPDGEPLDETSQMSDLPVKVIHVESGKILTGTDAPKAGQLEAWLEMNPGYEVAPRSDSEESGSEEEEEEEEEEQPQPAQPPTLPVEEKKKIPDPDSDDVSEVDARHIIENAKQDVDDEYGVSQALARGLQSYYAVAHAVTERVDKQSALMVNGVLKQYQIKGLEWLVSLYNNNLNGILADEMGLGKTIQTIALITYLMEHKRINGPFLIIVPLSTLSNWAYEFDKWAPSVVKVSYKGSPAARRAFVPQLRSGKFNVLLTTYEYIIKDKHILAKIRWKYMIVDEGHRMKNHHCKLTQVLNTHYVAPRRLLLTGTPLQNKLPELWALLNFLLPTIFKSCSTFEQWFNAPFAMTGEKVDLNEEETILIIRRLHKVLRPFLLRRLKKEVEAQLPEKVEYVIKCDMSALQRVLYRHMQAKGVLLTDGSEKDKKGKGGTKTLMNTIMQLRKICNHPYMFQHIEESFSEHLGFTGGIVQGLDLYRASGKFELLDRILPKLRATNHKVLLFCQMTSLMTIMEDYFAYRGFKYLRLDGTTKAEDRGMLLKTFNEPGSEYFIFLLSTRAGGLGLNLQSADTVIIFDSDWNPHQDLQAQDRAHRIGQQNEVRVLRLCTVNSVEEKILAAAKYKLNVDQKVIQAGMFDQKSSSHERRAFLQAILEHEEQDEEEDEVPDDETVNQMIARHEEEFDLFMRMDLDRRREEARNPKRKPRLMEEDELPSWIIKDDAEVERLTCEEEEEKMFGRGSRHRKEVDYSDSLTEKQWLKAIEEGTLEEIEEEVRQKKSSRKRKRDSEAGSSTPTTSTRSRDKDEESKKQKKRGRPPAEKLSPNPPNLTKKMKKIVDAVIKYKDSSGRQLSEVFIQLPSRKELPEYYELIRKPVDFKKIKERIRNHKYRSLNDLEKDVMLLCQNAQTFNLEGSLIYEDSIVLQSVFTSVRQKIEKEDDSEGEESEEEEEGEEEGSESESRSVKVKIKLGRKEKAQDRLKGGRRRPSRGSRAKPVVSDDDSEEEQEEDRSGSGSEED"}, "source": "paper PMC4970297", "molecular_target": "FLAG-GLI2^S662A (mouse) (UniProt Q0VGT2)", "experiment": "co-IP; FLAG beads (mouse IgG agarose beads as negative control) on pre-cleared extract of day 3 differentiating mES[GLI2] and mES[Ctrl] cells; 2 h IP; low salt wash (100 mM NaCl, 50 mM Tris pH7.5); western blot with anti-GLI2 and anti-BRG1 antibodies", "note": "No constants are given. Whether binding was seen depends on the method and setting. In cells and extracts the contact can be indirect. Some results given as binding are weak or reduced against the parent protein; the word gives no strength.", "data": [{"substance": "Brahma-related gene 1 (BRG1/SMARCA4) (from UniProt Q3TKT4 1-1613)", "values": [{"measurement": "binding", "value": "binds"}]}]}
